Among all 1,200 compounds or so, about 15 (1%) were called active. Inconclusive results (about 7%) are left out. Calls follow the shape of the dose curve; as a rule, active = well fitted activation curve with a large enough effect; inconclusive = small, poorly fitted or top-dose-only effect; inactive = flat fitted curve, though single readings scatter. The list shows a part of the results.
Molecular target: Beta-2 adrenergic receptor (Homo sapiens) (UniProt P07550)
Assay: qHTS assay of beta-arrestin-biased ligands of beta2-adrenergic receptor: Hit Validation;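 also: plate controls were DMSO for no effect and maximal isoproterenol or metaproterenol response for full effect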
Conditions: cell-based beta-arrestin recruitment to beta2AR; Potency: activation; series mostly up to 46.1 µM; activation: at the top concentration
Outline: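 Luminescent tTA-driven luciferase reporter in Tango cells, read after 18 h at 37 °C with compound and 15 min with substrate mix (0.15 mM ATP, 0.44 mM D-luciferin, final). Concentration-response fits categorized by curve class.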

activation, inactive:
Cc1ccc(/C=C/C(=O)N2CCN(c3ncccn3)CC2)o1 -1.3%
CCCCCCCCN1C(=O)N(C)C(N(O)C(=O)NC)C1(C)C (stereo not drawn) -3.26%
CCCNC(C)C(=O)Nc1ccccc1C (stereo not drawn) -0.511%
CC1=NN(C(N)=S)C(=O)C1N=Nc1cccc(Cl)c1 (stereo not drawn) -2.92%
CCOC(=O)/C(C#N)=C/Nc1ccsc1C(=O)OC -3.19%
Nc1ncc(-c2ccccc2)n1CC1CCCO1 (stereo not drawn) -1.47%
CN(C)c1ccc(NC(=S)c2ccc3ccccc3n2)cc1 -2.5%
COc1ccccc1CN1C[C@@H]2C[C@@H](c3ccc4nsnc4c3)N3CCC[C@@]23C1=O -1.58%
CN(C)C=Nc1nonc1-c1ccc(Cl)cc1 -4.78%
CCc1cc(=O)oc2cc3occ(C)c3cc12 -1.07%
CN(C)/C=C/C(=O)c1ccc(Oc2ncccn2)cc1 -1.47%
COc1ccc(-c2cn3cccnc3n2)cc1F -3.26%
O=C(Nc1nc(-c2ccccn2)cs1)Nc1ccc(F)cc1F 0.564%
CCCCc1nnc(NC(=O)c2ccccc2OCc2c(C)noc2C)s1 -1.03%
C=CCn1nc([N+](=O)[O-])nc1Sc1cccc2cccnc12 -2.64%
Fc1ccccc1/C=N/n1cc(-c2ccccc2)[nH]c1=S -0.859%
COc1cc(/C=C2\SC(=N)N(c3ccc4c(c3)OCO4)C2=O)cc(OC)c1O -0.457%
Cc1nc2ccc(NC(=O)CS(=O)(=O)c3ccc(F)cc3)cc2s1 -1.23%
Cc1cccc(N(C(=O)CNC(=O)c2cccs2)C(C(=O)NC2CCCC2)c2ccncc2)c1 (stereo not drawn) 5.2%
Cc1ccc(C)c(OCC(=O)NCC(C)C)c1C -3.09%
Cc1ccccc1NC(=S)Nc1ccccn1 -0.855%
N#C/C(=C\c1c(Cl)cccc1Cl)c1nc2ccccc2o1 -1.61%
COCCCN=C1NN=C(c2cc(C)n(-c3ccccc3)c2C)CS1 -1.56%
O=C(OCC1CC(c2ccccc2)=NO1)c1ccco1 (stereo not drawn) 0.568%
CCOC(=O)c1c(-c2ccco2)csc1NC(=O)COC(=O)c1cnccn1 -2.12%
COc1cc2c(cc1OC)C(c1cc3ccccc3oc1=O)=NC(C)(C)C2 -4.34%
CCn1nnnc1SCC(=O)Nc1nc2ccc(OC)cc2s1 -0.634%
CCN(CC)S(=O)(=O)c1ccc(N=Nc2c(C)[nH]n(C(N)=S)c2=O)cc1 -2.88%
Cc1cccc2c1c1ccc3c(c1n2C)C(=O)C=CC3=O -2.88%
C[C@H](CO)N1C[C@H](C)[C@@H](CN(C)Cc2ccc(-c3ccccc3)cc2)Oc2c(NC(=O)Cc3ccccc3)cccc2C1=O 4.09%
Cn1c(=S)[nH]c2c(c1=O)C(C)(C)Cc1ccccc1-2 -4.04%
O=C1NC(c2ccc(-c3ccccc3[N+](=O)[O-])o2)C(C(=O)c2ccc(F)cc2)C(O)(C(F)(F)F)N1 (stereo not drawn) -4.07%

No new results follow: an excerpt of the list.
activation, inactive:
COc1cc(/C=C2\SC(=N)N(c3ccc4c(c3)OCO4)C2=O)cc(OC)c1O -0.457%
Cc1nc2ccc(NC(=O)CS(=O)(=O)c3ccc(F)cc3)cc2s1 -1.23%

Following part.

Potency, inactive:
S=C(Nc1ccccn1)c1ccccn1
